Reference: PMC9042636
Results are given in words; binding and its absence hold for the method and conditions named. Binding seen in cells or lysates may run through a third protein. Some results given as binding are weak or reduced against the parent protein; the word gives no strength.

The chains behind the UniProt entries cited, without tags or fusion partners.
UniProt P27986: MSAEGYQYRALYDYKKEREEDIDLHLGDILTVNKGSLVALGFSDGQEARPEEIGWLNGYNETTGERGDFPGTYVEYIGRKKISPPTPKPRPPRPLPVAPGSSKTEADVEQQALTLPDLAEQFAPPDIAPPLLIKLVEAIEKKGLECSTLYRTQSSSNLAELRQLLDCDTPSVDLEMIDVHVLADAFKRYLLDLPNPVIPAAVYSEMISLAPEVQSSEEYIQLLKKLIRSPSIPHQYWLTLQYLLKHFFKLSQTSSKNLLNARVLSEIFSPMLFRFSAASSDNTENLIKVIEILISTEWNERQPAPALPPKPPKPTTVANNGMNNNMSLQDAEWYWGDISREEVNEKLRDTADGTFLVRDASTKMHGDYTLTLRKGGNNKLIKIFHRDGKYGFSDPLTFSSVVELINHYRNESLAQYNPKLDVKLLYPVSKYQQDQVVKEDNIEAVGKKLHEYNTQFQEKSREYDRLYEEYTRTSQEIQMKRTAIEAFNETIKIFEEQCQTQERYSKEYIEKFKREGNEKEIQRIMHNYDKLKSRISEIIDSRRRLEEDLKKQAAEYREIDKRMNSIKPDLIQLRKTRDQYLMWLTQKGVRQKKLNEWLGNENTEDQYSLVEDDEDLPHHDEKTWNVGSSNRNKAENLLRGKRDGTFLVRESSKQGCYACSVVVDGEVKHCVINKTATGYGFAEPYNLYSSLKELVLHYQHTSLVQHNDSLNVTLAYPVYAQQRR

Target: T1, Regulator of G protein signaling 20 (RGS20) (human (endogenous in Penl1 and 149RM)) (UniProt O76081)
T1 sequence: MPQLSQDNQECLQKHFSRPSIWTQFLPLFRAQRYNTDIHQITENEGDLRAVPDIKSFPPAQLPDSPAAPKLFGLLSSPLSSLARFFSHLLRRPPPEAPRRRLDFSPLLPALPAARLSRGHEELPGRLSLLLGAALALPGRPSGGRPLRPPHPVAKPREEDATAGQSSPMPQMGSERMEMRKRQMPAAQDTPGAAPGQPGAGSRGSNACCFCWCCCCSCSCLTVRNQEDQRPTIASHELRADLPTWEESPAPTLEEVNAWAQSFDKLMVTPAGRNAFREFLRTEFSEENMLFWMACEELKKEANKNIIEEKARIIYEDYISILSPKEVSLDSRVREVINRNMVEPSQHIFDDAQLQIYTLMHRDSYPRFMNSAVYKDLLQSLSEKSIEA
Assay: co-IP; RGS20 immunoprecipitated with a rabbit anti-RGS20 antibody, captured by Protein G Dynabeads; immunoprecipitates analysed by western blotting; Penl1 and 149RM cells; IgG as control

- binding: binds
Substance: PI3K p85α subunit (from UniProt P27986 1-724)
